Data as given in the supplement of paper PMC12823440, “Inhibitors supercharge kinase turnover through native proteolytic circuits” (Nature, 2025).
Some of the results follow. Hit calls seldom repeat between salt and free forms of one compound.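 In K562 cells expressing nanoluciferase-fused kinases, luminescence was recorded at 4 h intervals between 2 and 18 h, normalized as percent of control with DMSO at 100% and a positive control at 0%. A significant (2 sigma) signal drop marks a time point as decreased. The authors' rule for a hit is not shown and takes in more than the number of time points.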

Protein sequences, listed by entry. Tags and fused reporters are not part of them. Lines headed by an entry give the natural chain unless they say otherwise; changes in a name come on top.
UniProt P28482, whole entry: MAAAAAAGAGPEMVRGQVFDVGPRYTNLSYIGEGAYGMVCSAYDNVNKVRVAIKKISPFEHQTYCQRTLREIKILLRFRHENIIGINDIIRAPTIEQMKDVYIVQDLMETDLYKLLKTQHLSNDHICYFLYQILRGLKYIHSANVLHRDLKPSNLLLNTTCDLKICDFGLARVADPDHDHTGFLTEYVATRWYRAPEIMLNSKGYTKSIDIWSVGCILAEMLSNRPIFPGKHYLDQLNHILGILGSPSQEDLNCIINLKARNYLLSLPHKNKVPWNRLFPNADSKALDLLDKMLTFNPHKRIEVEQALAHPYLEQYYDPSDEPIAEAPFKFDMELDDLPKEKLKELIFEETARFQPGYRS
UniProt P31152, whole entry: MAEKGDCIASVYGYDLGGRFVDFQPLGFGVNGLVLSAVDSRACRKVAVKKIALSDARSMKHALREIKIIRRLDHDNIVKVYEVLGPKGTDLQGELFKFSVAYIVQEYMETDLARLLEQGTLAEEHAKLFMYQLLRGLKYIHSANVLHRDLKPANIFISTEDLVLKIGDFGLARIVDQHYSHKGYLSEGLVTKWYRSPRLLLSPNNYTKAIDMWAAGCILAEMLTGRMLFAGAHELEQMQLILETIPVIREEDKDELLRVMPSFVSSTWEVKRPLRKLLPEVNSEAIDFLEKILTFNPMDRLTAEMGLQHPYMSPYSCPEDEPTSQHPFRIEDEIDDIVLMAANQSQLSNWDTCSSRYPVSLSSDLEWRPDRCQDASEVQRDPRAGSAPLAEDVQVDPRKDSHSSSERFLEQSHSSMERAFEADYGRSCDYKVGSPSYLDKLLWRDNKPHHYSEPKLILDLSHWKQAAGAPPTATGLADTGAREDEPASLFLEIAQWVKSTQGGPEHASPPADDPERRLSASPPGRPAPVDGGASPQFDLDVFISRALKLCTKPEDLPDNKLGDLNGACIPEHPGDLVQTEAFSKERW
UniProt P49137, whole entry, looked up: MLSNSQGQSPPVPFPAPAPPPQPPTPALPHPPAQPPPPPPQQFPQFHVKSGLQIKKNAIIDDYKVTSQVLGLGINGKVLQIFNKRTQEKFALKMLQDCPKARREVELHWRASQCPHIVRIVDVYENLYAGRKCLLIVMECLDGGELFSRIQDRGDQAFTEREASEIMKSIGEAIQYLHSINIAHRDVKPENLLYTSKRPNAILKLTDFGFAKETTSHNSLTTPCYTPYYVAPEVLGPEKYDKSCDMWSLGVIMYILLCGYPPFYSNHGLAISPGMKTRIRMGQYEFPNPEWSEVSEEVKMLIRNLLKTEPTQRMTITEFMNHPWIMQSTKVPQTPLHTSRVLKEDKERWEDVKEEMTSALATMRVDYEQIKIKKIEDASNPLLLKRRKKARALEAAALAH
UniProt Q9BUB5: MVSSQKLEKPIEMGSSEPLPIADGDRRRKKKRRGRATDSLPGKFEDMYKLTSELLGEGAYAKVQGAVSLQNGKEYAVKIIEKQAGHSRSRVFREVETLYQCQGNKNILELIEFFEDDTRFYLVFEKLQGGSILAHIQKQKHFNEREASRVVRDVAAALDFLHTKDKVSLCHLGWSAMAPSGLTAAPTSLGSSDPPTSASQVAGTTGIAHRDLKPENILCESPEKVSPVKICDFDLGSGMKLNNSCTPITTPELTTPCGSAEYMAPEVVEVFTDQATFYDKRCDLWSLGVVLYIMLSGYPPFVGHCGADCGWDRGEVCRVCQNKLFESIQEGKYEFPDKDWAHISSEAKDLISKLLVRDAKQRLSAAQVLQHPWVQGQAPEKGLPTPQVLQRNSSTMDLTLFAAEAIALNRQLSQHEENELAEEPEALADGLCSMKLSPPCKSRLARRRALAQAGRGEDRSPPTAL
UniProt Q16620, whole entry, looked up: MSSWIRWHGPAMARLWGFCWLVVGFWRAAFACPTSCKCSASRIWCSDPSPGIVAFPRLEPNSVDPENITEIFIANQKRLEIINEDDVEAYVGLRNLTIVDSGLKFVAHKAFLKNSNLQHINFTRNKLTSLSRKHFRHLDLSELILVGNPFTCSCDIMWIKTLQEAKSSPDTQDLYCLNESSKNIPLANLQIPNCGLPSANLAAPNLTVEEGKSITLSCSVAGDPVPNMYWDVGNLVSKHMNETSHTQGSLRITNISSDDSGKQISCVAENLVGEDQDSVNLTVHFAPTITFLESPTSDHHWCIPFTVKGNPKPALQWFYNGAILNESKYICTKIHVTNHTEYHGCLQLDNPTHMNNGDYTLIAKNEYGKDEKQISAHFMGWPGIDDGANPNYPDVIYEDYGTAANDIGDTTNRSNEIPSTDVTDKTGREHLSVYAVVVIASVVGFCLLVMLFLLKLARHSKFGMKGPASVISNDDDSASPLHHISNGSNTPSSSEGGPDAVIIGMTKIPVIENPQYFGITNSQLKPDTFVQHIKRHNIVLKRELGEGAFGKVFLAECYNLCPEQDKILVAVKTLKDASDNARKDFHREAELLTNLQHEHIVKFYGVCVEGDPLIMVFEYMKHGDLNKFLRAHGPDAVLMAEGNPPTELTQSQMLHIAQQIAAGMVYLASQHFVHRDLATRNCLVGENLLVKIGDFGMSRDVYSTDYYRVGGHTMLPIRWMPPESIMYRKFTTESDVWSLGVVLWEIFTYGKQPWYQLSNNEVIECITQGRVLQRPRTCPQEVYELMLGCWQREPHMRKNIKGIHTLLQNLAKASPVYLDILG
UniProt Q16288, whole entry, looked up: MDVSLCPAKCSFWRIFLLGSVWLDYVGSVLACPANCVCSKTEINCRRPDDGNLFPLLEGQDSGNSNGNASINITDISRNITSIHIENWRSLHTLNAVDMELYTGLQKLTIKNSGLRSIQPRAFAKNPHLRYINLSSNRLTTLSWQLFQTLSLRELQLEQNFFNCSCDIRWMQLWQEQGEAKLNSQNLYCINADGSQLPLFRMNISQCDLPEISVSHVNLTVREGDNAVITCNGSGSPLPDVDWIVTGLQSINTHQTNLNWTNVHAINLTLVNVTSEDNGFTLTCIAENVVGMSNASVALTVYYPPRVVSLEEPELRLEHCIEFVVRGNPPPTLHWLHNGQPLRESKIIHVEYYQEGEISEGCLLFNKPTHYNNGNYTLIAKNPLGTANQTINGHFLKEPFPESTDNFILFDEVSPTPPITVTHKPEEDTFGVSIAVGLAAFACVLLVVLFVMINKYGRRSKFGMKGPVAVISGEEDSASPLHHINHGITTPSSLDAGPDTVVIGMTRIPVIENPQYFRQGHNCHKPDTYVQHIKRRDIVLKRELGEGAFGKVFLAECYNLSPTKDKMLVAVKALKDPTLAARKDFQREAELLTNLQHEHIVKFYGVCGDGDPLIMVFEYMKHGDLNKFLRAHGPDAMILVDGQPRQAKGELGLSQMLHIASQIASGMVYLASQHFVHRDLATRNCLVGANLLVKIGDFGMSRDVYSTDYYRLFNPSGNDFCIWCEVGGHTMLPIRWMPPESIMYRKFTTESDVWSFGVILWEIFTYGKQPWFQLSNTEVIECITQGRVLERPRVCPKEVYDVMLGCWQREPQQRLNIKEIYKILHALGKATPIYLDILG
UniProt O96013: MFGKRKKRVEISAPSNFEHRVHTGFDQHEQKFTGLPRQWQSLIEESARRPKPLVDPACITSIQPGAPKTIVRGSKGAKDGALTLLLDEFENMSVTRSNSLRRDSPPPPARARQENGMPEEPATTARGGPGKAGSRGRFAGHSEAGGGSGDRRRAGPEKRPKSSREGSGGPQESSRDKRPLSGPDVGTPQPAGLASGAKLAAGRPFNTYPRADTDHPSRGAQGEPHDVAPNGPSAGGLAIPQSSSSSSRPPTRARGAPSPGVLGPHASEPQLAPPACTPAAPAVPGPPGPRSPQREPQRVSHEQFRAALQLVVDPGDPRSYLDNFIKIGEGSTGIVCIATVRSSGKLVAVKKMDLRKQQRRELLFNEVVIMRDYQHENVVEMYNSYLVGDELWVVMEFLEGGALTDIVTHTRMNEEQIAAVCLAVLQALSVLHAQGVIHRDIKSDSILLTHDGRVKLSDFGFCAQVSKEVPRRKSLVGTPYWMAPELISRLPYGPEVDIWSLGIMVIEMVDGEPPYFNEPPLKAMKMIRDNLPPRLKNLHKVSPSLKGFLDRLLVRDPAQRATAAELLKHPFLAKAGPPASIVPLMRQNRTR
UniProt Q96KB5: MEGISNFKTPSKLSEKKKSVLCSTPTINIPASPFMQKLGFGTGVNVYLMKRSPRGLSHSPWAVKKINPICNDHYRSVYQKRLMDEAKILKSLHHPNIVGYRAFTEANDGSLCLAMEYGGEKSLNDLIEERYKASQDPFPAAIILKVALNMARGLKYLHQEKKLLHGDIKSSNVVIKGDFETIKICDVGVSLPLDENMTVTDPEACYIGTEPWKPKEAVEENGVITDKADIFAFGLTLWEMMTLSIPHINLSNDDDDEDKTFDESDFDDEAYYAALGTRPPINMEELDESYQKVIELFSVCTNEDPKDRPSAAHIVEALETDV
UniProt P09619, whole entry: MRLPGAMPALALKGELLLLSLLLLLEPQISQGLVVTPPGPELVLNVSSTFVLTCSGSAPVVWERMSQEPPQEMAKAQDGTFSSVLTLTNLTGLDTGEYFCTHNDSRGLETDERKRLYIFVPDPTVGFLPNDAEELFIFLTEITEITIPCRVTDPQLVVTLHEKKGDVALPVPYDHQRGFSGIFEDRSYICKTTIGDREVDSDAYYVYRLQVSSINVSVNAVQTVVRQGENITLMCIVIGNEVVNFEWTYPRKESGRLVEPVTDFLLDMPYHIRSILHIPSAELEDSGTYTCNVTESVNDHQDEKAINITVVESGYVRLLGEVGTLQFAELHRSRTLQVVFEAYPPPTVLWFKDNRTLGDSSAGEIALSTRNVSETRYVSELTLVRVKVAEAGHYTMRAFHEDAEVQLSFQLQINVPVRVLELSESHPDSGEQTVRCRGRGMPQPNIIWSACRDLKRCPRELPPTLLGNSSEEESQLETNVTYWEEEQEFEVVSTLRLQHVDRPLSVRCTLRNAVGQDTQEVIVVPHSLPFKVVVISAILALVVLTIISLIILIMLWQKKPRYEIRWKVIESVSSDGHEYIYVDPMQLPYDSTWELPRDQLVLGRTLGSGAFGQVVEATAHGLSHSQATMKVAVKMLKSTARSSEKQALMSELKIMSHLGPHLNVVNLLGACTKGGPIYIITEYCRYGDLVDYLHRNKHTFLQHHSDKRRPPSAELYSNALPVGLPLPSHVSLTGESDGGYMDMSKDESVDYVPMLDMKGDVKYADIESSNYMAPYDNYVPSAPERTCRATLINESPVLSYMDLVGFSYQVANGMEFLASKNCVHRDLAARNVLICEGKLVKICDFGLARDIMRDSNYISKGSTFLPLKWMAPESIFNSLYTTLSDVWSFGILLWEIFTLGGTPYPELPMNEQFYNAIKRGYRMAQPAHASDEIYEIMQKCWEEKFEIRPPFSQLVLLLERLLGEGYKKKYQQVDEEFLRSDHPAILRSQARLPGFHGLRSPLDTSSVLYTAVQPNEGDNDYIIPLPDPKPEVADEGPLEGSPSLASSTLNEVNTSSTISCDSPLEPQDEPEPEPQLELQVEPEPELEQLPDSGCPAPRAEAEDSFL
UniProt Q15118, whole entry, looked up: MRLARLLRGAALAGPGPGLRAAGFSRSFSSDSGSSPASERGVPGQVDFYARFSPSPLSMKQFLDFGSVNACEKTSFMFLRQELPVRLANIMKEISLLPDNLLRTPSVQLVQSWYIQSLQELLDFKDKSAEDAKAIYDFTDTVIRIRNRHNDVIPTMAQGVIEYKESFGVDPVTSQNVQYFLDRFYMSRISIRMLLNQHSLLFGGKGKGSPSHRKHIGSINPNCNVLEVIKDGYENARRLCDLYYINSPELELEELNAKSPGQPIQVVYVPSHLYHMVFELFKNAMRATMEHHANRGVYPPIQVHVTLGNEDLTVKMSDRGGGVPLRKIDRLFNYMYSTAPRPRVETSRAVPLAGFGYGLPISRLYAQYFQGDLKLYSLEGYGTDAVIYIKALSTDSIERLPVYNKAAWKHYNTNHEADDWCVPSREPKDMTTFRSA

Legend:
Test in all cases: kinase-Nluc reporter destabilization hit call (1 = scored as downregulated) (binary); higher = compound decreases kinase abundance
Details in all cases: K562; 2-18 h
MAPK1 = MAPK1 (UniProt P28482)
MAPK4 = MAPK4 (UniProt P31152)
MAPKAPK2 = MAPKAPK2 (UniProt P49137)
MKNK1 = MKNK1 (UniProt Q9BUB5)
NTRK2 = NTRK2 (UniProt Q16620)
NTRK3 = NTRK3 (UniProt Q16288)
PAK4 = PAK4 (UniProt O96013)
PBK = PBK (UniProt Q96KB5)
PDGFRB = PDGFRB (UniProt P09619)
PDK1 = PDK1 (UniProt Q15118)

Measured: kinase-Nluc reporter destabilization hit call

C=C(CCC=C(C)C)[C@H]1CC[C@]2(C)[C@@H]1[C@H](O)C[C@@H]1[C@@]3(C)CC[C@H](O[C@@H]4O[C@H](CO)[C@@H](O)[C@H](O)[C@H]4O[C@@H]4O[C@H](CO)[C@@H](O)[C@H](O)[C@H]4O)C(C)(C)[C@@H]3CC[C@]12C [Ginsenoside Rk1] (10 µM)
inactive: MAPK1 = 0 | MAPK4 = 0 | MAPKAPK2 = 0 | MKNK1 = 0 | NTRK2 = 0 | NTRK3 = 0 | PAK4 = 0 | PBK 0 | PDGFRB 0 | PDK1 = 0

N#Cc1ccc2ncnc(NC3CCC(N4CCOCC4)CC3)c2c1 (stereo not given) (10 µM)
inactive: MAPK1 = 0 | MAPK4 = 0 | MAPKAPK2 = 0 | MKNK1 = 0 | NTRK2 = 0 | NTRK3 = 0 | PAK4 = 0 | PBK 0 | PDGFRB 0 | PDK1 = 0

Cc1ccc2nc(NC(=O)CSc3nc4c(c(=O)n3-c3ccccc3)SCC4)sc2c1 (2 µM)
inactive: MAPK1 = 0 | MAPK4 = 0 | MAPKAPK2 = 0 | MKNK1 = 0 | NTRK2 = 0 | NTRK3 = 0 | PAK4 = 0 | PBK 0 | PDGFRB 0 | PDK1 = 0

OC[C@H]1O[C@@H](Oc2cc3c(O)cc(O)cc3[o+]c2-c2cc(O)c(O)c(O)c2)[C@H](O)[C@@H](O)[C@@H]1O [Delphinidin 3-glucoside (chloride)] (10 µM)
inactive: MAPK1 = 0 | MAPK4 = 0 | MAPKAPK2 = 0 | MKNK1 = 0 | NTRK2 = 0 | NTRK3 = 0 | PAK4 = 0 | PBK 0 | PDGFRB 0 | PDK1 = 0

O=c1cc(O)cc(/C=C/c2ccc(O)c(O)c2)o1 [Hispidin] (10 µM)
inactive: MAPK1 = 0 | MAPK4 = 0 | MAPKAPK2 = 0 | MKNK1 = 0 | NTRK2 = 0 | NTRK3 = 0 | PAK4 = 0 | PBK 0 | PDGFRB 0 | PDK1 = 0

CC/C=C\C/C=C\C/C=C\CCCCCCCC(=O)O [α-Linolenic acid] (10 µM)
inactive: MAPK1 = 0 | MAPK4 = 0 | MAPKAPK2 = 0 | MKNK1 = 0 | NTRK2 = 0 | NTRK3 = 0 | PAK4 = 0 | PBK 0 | PDGFRB 0 | PDK1 = 0

Cc1cc(-c2cc(OC(=O)c3ccccc3)ccc2Cl)cc2nnc(Nc3ccc(OCCN4CCCC4)cc3)nc12 (0.5 µM)
inactive: MAPK1 = 0 | MAPK4 = 0 | MAPKAPK2 = 0 | MKNK1 = 0 | NTRK2 = 0 | NTRK3 = 0 | PAK4 = 0 | PBK 0 | PDGFRB 0 | PDK1 = 0

C[C@@H]1C(=O)O[C@H](C)[C@H]1C[C@@H](O)[C@](C)(O)[C@H]1CC[C@@]2(O)C3=CC(=O)[C@@H]4C[C@@H](O)[C@@H](O)C[C@]4(C)[C@H]3CC[C@]12C [Cyasterone] (10 µM)
inactive: MAPK1 = 0 | MAPK4 = 0 | MAPKAPK2 = 0 | MKNK1 = 0 | NTRK2 = 0 | NTRK3 = 0 | PAK4 = 0 | PBK 0 | PDGFRB 0 | PDK1 = 0

COc1ccc(-c2ccc3c(N4CCOC[C@@H]4C)nc(N4CCOC[C@@H]4C)nc3n2)cc1CO (2.5 µM)
inactive: MAPK1 = 0 | MAPK4 = 0 | MAPKAPK2 = 0 | MKNK1 = 0 | NTRK2 = 0 | NTRK3 = 0 | PAK4 = 0 | PBK 0 | PDGFRB 0 | PDK1 = 0

Copied from the listing (4 entries):
CC/C=C\C/C=C\C/C=C\CCCCCCCC(=O)O [α-Linolenic acid] (10 µM)
inactive: MAPK1 = 0 | MAPK4 = 0 | MAPKAPK2 = 0 | MKNK1 = 0 | NTRK2 = 0 | NTRK3 = 0 | PAK4 = 0 | PBK 0 | PDGFRB 0 | PDK1 = 0

Cc1cc(-c2cc(OC(=O)c3ccccc3)ccc2Cl)cc2nnc(Nc3ccc(OCCN4CCCC4)cc3)nc12 (0.5 µM)
inactive: MAPK1 = 0 | MAPK4 = 0 | MAPKAPK2 = 0 | MKNK1 = 0 | NTRK2 = 0 | NTRK3 = 0 | PAK4 = 0 | PBK 0 | PDGFRB 0 | PDK1 = 0

C[C@@H]1C(=O)O[C@H](C)[C@H]1C[C@@H](O)[C@](C)(O)[C@H]1CC[C@@]2(O)C3=CC(=O)[C@@H]4C[C@@H](O)[C@@H](O)C[C@]4(C)[C@H]3CC[C@]12C [Cyasterone] (10 µM)
inactive: MAPK1 = 0 | MAPK4 = 0 | MAPKAPK2 = 0 | MKNK1 = 0 | NTRK2 = 0 | NTRK3 = 0 | PAK4 = 0 | PBK 0 | PDGFRB 0 | PDK1 = 0

COc1ccc(-c2ccc3c(N4CCOC[C@@H]4C)nc(N4CCOC[C@@H]4C)nc3n2)cc1CO (2.5 µM)
inactive: MAPK1 = 0 | MAPK4 = 0 | MAPKAPK2 = 0 | MKNK1 = 0 | NTRK2 = 0 | NTRK3 = 0 | PAK4 = 0 | PBK 0 | PDGFRB 0 | PDK1 = 0

Continued.

O=C(NCCO)c1ccc2c(c1)nc(Nc1cccc(Cl)c1)c1ccncc12 [CK2 inhibitor 2] (10 µM)
inactive: MAPK1 = 0 | MAPK4 = 0 | MAPKAPK2 = 0 | MKNK1 = 0 | NTRK2 = 0 | NTRK3 = 0 | PAK4 = 0 | PBK 0 | PDGFRB 0 | PDK1 = 0

NC1(Cc2ccc(Cl)cc2)CCN(c2ncnc3[nH]ccc23)CC1 (10 µM)
inactive: MAPK1 = 0 | MAPK4 = 0 | MAPKAPK2 = 0 | MKNK1 = 0 | NTRK2 = 0 | NTRK3 = 0 | PAK4 = 0 | PBK 0 | PDGFRB 0 | PDK1 = 0

COc1cc(S(C)(=O)=O)ccc1Nc1nc2ccc(-c3ccc(NC(=O)[C@H](C)c4ccc(F)cc4)cc3)cn2n1 [Empesertib] (10 µM)
inactive: MAPK1 = 0 | MAPK4 = 0 | MAPKAPK2 = 0 | MKNK1 = 0 | NTRK2 = 0 | NTRK3 = 0 | PAK4 = 0 | PBK 0 | PDGFRB 0 | PDK1 = 0

Cc1ccc(S(=O)(=O)Nc2ccccc2C=Nc2ccccc2NS(=O)(=O)c2ccc(C)cc2)cc1 (10 µM)
inactive: MAPK1 = 0 | MAPK4 = 0 | MAPKAPK2 = 0 | MKNK1 = 0 | NTRK2 = 0 | NTRK3 = 0 | PAK4 = 0 | PBK 0 | PDGFRB 0 | PDK1 = 0

CC[C@@]1(c2ccccc2)C2=C(CC(C)(C)CC2=O)Nc2[nH]ncc21 (10 µM)
inactive: MAPK1 = 0 | MAPK4 = 0 | MAPKAPK2 = 0 | MKNK1 = 0 | NTRK2 = 0 | NTRK3 = 0 | PAK4 = 0 | PBK 0 | PDGFRB 0 | PDK1 = 0

Cc1ccc(-c2c(C(=O)CCl)n(CCCO)c3ncnc(N)c23)cc1 (10 µM)
inactive: MAPK1 = 0 | MAPK4 = 0 | MAPKAPK2 = 0 | MKNK1 = 0 | NTRK2 = 0 | NTRK3 = 0 | PAK4 = 0 | PBK 0 | PDGFRB 0 | PDK1 = 0

COc1ccc(Cl)cc1NC(=O)Nc1cc(C)nc2ccccc12 (2.5 µM)
inactive: MAPK1 = 0 | MAPK4 = 0 | MAPKAPK2 = 0 | MKNK1 = 0 | NTRK2 = 0 | NTRK3 = 0 | PAK4 = 0 | PBK 0 | PDGFRB 0 | PDK1 = 0

Fc1ccc(-c2nc(-c3c(F)cccc3F)[nH]c2-c2ccncc2)cc1 (10 µM)
inactive: MAPK1 = 0 | MAPK4 = 0 | MAPKAPK2 = 0 | MKNK1 = 0 | NTRK2 = 0 | NTRK3 = 0 | PAK4 = 0 | PBK 0 | PDGFRB 0 | PDK1 = 0

CCN1CCN(Cc2ccc(Nc3ncc(F)c(-c4cc(F)c5nc(CO)n(C(C)C)c5c4)n3)nc2)CC1 [Abemaciclib metabolite M20] (2 µM)
inactive: MAPK1 = 0 | MAPK4 = 0 | MAPKAPK2 = 0 | MKNK1 = 0 | NTRK2 = 0 | NTRK3 = 0 | PAK4 = 0 | PBK 0 | PDGFRB 0 | PDK1 = 0

Cc1ccc(Nc2cc(-c3cccc(N4C(=O)c5ccccc5C4=O)c3)ncn2)cc1NS(C)(=O)=O (10 µM)
inactive: MAPK1 = 0 | MAPK4 = 0 | MAPKAPK2 = 0 | MKNK1 = 0 | NTRK2 = 0 | NTRK3 = 0 | PAK4 = 0 | PBK 0 | PDGFRB 0 | PDK1 = 0

O=C(/C=C/c1ccc(O)c(O)c1)OC1CC(OC(=O)/C=C/c2ccc(O)c(O)c2)(C(=O)O)CC(O)C1O (stereo not given) [1,3-Dicaffeoylquinic acid] (10 µM)
inactive: MAPK1 = 0 | MAPK4 = 0 | MAPKAPK2 = 0 | MKNK1 = 0 | NTRK2 = 0 | NTRK3 = 0 | PAK4 = 0 | PBK 0 | PDGFRB 0 | PDK1 = 0

N#Cc1c(-c2ccccc2)cc(-c2cc(Br)ccc2O)[nH]c1=O (10 µM)
inactive: MAPK1 = 0 | MAPK4 = 0 | MAPKAPK2 = 0 | MKNK1 = 0 | NTRK2 = 0 | NTRK3 = 0 | PAK4 = 0 | PBK 0 | PDGFRB 0 | PDK1 = 0

CC(C)=CCC[C@](C)(O[C@@H]1O[C@H](CO)[C@@H](O)[C@H](O)[C@H]1O)[C@H]1CC[C@]2(C)[C@@H]1[C@H](O)C[C@@H]1[C@@]3(C)CC[C@H](O)C(C)(C)[C@@H]3[C@@H](O[C@@H]3O[C@H](CO)[C@@H](O)[C@H](O)[C@H]3O[C@@H]3O[C@@H](C)[C@H](O)[C@@H](O)[C@H]3O)C[C@]12C [Ginsenoside Re] (10 µM)
inactive: MAPK1 = 0 | MAPK4 = 0 | MAPKAPK2 = 0 | MKNK1 = 0 | NTRK2 = 0 | NTRK3 = 0 | PAK4 = 0 | PBK 0 | PDGFRB 0 | PDK1 = 0

NCCN1CCN(C/C=C/C(=O)N2CCC[C@@H](n3nc(-c4ccc(Oc5ccccc5)cc4)c4c(N)ncnc43)C2)CC1 [Ibrutinib-MPEA] (10 µM)
inactive: MAPK1 = 0 | MAPK4 = 0 | MAPKAPK2 = 0 | MKNK1 = 0 | NTRK2 = 0 | NTRK3 = 0 | PAK4 = 0 | PBK 0 | PDGFRB 0 | PDK1 = 0

N#Cc1cccc(-c2c[nH]c3ncnc(N4CCOCC4)c23)c1 (10 µM)
inactive: MAPK1 = 0 | MAPK4 = 0 | MAPKAPK2 = 0 | MKNK1 = 0 | NTRK2 = 0 | NTRK3 = 0 | PAK4 = 0 | PBK 0 | PDGFRB 0 | PDK1 = 0

Cc1ccc(NC(=S)NNc2c([N+](=O)[O-])cc(C(F)(F)F)cc2[N+](=O)[O-])cc1Cl (10 µM)
inactive: MAPK1 = 0 | MAPK4 = 0 | MAPKAPK2 = 0 | MKNK1 = 0 | NTRK2 = 0 | NTRK3 = 0 | PAK4 = 0 | PBK 0 | PDGFRB 0 | PDK1 = 0

COc1ccc(C(=C2C(=O)Nc3ccccc32)c2ccc(OC)cc2)cc1 (10 µM)
inactive: MAPK1 = 0 | MAPK4 = 0 | MAPKAPK2 = 0 | MKNK1 = 0 | NTRK2 = 0 | NTRK3 = 0 | PAK4 = 0 | PBK 0 | PDGFRB 0 | PDK1 = 0

CC1CCc2nc(N)c(C#N)c(-c3cccnc3)c2C1 (stereo not given) (10 µM)
inactive: MAPK1 = 0 | MAPK4 = 0 | MAPKAPK2 = 0 | MKNK1 = 0 | NTRK2 = 0 | NTRK3 = 0 | PAK4 = 0 | PBK 0 | PDGFRB 0 | PDK1 = 0

CC(C)c1cnc(-c2cc(Cl)ccc2F)cc1Nc1ccncc1C(=O)NC(CO)CO (2.5 µM)
inactive: MAPK1 = 0 | MAPK4 = 0 | MAPKAPK2 = 0 | MKNK1 = 0 | NTRK2 = 0 | NTRK3 = 0 | PAK4 = 0 | PBK 0 | PDGFRB 0 | PDK1 = 0

O=C(NC(NC(=S)Nc1ccc(F)c([N+](=O)[O-])c1)C(Cl)(Cl)Cl)C(c1ccccc1)c1ccccc1 (stereo not given) (10 µM)
inactive: MAPK1 = 0 | MAPK4 = 0 | MAPKAPK2 = 0 | MKNK1 = 0 | NTRK2 = 0 | NTRK3 = 0 | PAK4 = 0 | PBK 0 | PDGFRB 0 | PDK1 = 0

Cc1ccc(-c2c(C(=O)CF)n(CCCO)c3ncnc(N)c23)cc1 (10 µM)
inactive: MAPK1 = 0 | MAPK4 = 0 | MAPKAPK2 = 0 | MKNK1 = 0 | NTRK2 = 0 | NTRK3 = 0 | PAK4 = 0 | PBK 0 | PDGFRB 0 | PDK1 = 0

C=C1C(=O)O[C@@H]2C[C@@]3(C)CCC[C@H](C)C3=C[C@H]12 [Alantolactone] (10 µM)
inactive: MAPK1 = 0 | MAPK4 = 0 | MAPKAPK2 = 0 | MKNK1 = 0 | NTRK2 = 0 | NTRK3 = 0 | PAK4 = 0 | PBK 0 | PDGFRB 0 | PDK1 = 0

CCN(CC)S(=O)(=O)c1ccc(OC)c(N2CCN(C(=O)c3ccc(F)cc3C(F)(F)F)CC2)c1 (10 µM)
inactive: MAPK1 = 0 | MAPK4 = 0 | MAPKAPK2 = 0 | MKNK1 = 0 | NTRK2 = 0 | NTRK3 = 0 | PAK4 = 0 | PBK 0 | PDGFRB 0 | PDK1 = 0

Cc1ccc(S(=O)(=O)/C=C/C#N)cc1 (10 µM)
inactive: MAPK1 = 0 | MAPK4 = 0 | MAPKAPK2 = 0 | MKNK1 = 0 | NTRK2 = 0 | NTRK3 = 0 | PAK4 = 0 | PBK 0 | PDGFRB 0 | PDK1 = 0
